Data reported in patent US5432270A, “DNA encoding tracheal antimicrobial peptides” (priority 1993, dated 1995).
Not every detail of the peptide structures is certain; ends, links or a residue may be inferred. Where no end group is shown, it is not given here.

Assays:
Test in all cases: Minimal inhibitory concentration in 0.25x TSB, microtiter plates
Format in all cases: cell-based
Conditions in all cases: 2.5 × 10^4 microbe in 0.25× TSB, overnight 37° C.
[1] = tested on: Candida albicans (ATCC 14053)
Description: (§1) Antimicrobial activity of TAP (SEQ ID NO: 1) and
(§2) Magainin 2-NH2 (SEQ ID NO: 6). Minimal inhibitory
(§3) concentrations were determined by incubating approximately
(§4) 3.125 μg/ml of the appropriate peptide.

[2] = tested on: Klebsiella pneumonia (ATCC 13883)
Description: as §1, §2, §3, §4

[3] = tested on: Pseudomonas aeruginosa (ATCC 27853)
Description: as §1, §2, §3, §4

[4] = tested on: Staphylococcus aureus (ATCC 25923)
Description: as §1, §2, §3, §4

For “GIGKFLHSAKKFGKAFVGEIMNS-NH2 [Magainin 2-NH2, reference compound]”, the Minimal inhibitory concentration [1] was 25 to 50 µg/mL, the Minimal inhibitory concentration [2] was 3.125 to 6.25 µg/mL and the Minimal inhibitory concentration [3] was 6.25 to 12.5 µg/mL. The Minimal inhibitory concentration [4] was 25 to 50 µg/mL.
